This note sets out measurements from article PMC7478896, “EphrinB2-EphB4 signalling provides Rho-mediated homeostatic control of lymphatic endothelial cell junction integrity” (eLife, 2020).

Sequences of proteins named here, by UniProt entry; tags and fusion partners are left off. Residues count along the entry.
UniProt P52799, residues 28-229: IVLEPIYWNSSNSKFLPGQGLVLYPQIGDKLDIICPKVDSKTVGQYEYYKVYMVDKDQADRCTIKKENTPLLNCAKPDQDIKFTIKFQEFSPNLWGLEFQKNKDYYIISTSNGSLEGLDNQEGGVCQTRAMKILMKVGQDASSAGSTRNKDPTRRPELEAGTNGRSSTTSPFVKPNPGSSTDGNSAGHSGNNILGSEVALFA
UniProt P54760, residues 16-987: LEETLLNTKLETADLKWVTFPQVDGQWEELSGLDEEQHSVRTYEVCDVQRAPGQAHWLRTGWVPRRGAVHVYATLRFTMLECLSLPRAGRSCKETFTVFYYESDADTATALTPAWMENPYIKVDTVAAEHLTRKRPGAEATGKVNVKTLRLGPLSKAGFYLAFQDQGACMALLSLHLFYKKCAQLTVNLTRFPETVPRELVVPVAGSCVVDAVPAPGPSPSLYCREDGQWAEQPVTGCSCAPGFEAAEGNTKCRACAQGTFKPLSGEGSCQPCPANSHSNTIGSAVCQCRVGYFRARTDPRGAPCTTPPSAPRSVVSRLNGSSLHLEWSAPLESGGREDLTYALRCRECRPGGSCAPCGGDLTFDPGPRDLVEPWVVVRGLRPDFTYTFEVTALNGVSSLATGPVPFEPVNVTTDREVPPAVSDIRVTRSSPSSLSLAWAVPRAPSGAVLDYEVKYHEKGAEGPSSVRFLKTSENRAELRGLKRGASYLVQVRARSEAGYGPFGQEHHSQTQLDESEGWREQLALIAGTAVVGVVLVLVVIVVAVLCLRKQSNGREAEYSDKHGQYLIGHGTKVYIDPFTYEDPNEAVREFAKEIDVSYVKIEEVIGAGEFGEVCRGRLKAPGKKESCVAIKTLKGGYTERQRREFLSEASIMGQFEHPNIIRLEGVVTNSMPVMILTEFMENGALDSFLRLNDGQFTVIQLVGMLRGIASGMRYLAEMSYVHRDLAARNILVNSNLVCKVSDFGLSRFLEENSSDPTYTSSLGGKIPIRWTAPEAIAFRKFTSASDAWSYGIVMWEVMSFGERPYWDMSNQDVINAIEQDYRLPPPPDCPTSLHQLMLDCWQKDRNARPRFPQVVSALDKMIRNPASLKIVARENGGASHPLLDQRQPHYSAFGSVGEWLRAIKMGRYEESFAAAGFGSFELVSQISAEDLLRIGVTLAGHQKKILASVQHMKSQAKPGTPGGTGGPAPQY

No constants are given. Whether binding was seen depends on the method and setting. In cells and extracts the contact can be indirect. Some results given as binding are weak or reduced against the parent protein; the word gives no strength.

The test concerns the target recombinant human EphrinB2-Fc (human) (UniProt P52799). Put plainly: pull-down; 3 μg human EphrinB2-Fc and 30 µl Protein G-Sepharose incubated with HDLEC lysate for 3 hr at 4°C; lysis buffer 20 mM Tris-HCl pH 7.4, 150 mM NaCl, 2 mM CaCl2, 1 mM Na3VO4, 1% Triton X-100; washed five times; blot for EphB4 and phosphotyrosine (4G10); cells treated with control or EFNB2 siRNA and stimulated with pre-clustered EphrinB2-Fc or control Fc; only the target purified.

Consider “EphB4 (from UniProt P54760 16-987) (receptor)”, for which the binding entry is reported as “binds”.
